Patent US7416885B2, “Proliferated cell lines and uses thereof” (University of South Florida, priority 2002, dated 2008)
For at least one compound, name, drawing or mass did not settle the structure.

Test system: slow inward currents of RCVC cells
Assay: patch clamp of RCVC cells
Format: cell-based, rat
Conditions: 5 μM

COC(=O)C1=C(C)NC(C)=C(C(=O)OC)C1c1ccccc1[N+](=O)[O-] [nifedipine]
block of slow inward currents: completely blocked
